These are yes or no findings as the source states them, for the method shown. In cells and extracts the contact can be indirect. Some results given as binding are weak or reduced against the parent protein; the word gives no strength.

In the experiment the target is T1, rat CD1d heavy chain, endogenous in rat thymocytes (rat (endogenous in thymocytes)) (UniProt Q63493).
T1 sequence (chain, cell surface proteins biotinylated with Sulfo-NHS-LC-Biotin before lysis): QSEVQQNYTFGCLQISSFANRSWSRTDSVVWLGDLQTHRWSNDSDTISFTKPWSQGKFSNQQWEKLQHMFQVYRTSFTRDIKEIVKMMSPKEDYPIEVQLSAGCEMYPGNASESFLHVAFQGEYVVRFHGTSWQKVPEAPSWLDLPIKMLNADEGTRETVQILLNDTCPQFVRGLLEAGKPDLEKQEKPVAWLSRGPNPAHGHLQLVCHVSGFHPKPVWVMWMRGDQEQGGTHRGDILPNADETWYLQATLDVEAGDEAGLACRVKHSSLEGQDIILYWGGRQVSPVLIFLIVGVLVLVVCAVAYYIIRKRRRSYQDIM
Briefly: co-IP; surface-biotinylated transductants or thymocytes lysed in 50 mM Tris pH 7.4, 150 mM NaCl, 0.25% Na-deoxycholate, 1 mM EDTA, 1% NP40; lysates incubated overnight with mAb WTH-1 or WTH-2 covalently linked to Protein A Sepharose pre-coated with rabbit anti-mouse IgG; reducing 15% SDS-PAGE, blot developed with streptavidin-HRP.

B1: β2-microglobulin of rat thymocytes (protein, UniProt P07151 21-119)
chain: IQKTPQIQVYSRHPPENGKPNFLNCYVSQFHPPQIEIELLKNGKKIPNIEMSDLSFSKDWSFYILAHTEFTPTETDVYACRVKHVTLKEPKTVTWDRDM
modifications: cell surface proteins biotinylated with Sulfo-NHS-LC-Biotin before lysis
Turning to B1, the binding result is recorded as “binds”.

Values taken from article PMC2948036.
